Laboratory results reported in paper PMC10235067, “Increased renal elimination of endogenous and synthetic pyrimidine nucleosides in concentrative nucleoside transporter 1 deficient mice” (Nature Communications, 2023).
Where “and” joins values, the source holds several entries; their conditions need not be identical. Equal entries are not always repeated. Residues, ends and D or L forms follow the SMILES beside them.

What was measured:
[1] = test system: CNT1; test: Untargeted metabolomics of Slc28a1-/- vs Slc28a1+/+ mouse urine (24 h, ad libitum); conditions: for Fold Change / log2(FC): Slc28a1-/- / Slc28a1+/+; for change of level in Slc28a1-/- mouse urine (untargeted metabolomics): Slc28a1-/- vs Slc28a1+/+
[2] = test system: CNT1; test: Untargeted metabolomics of Slc28a1-/- vs Slc28a1+/+ mouse plasma (ad libitum); type: in vivo
[3] = test system: CNT1; conditions: Slc28a1-/- (CNT1 KO) mice, one value per animal, Figure 2D-F source data

Row | Compound | Fold Change [1] | log2(FC) [1] | Fold Change [2] | log2(FC) [2] | change of level in Slc28a1-/- mouse urine (untargeted metabolomics) [1] | Urine level of nucleoside / deoxynucleoside / nucleobase, CNT1 KO Urine (individual mice) [3]
1 | O=C(O)CCC1CCCC1 [3-Cyclopentylpropionic acid] | 0.08576 | -3.5436 | 3.2 and 3.1561 | 1.7 and 1.6581 |  | 
2 | Oc1ccnc2ccccc12 [4-Hydroxyquinoline] | 27.672 | 4.7904 | 1.2 and 1.2087 | 0.3 and 0.2735 |  | 
3 | NNc1ccc(C(=O)O)cn1 [6-Hydrazinonicotinic acid] | 1.3224 | 0.4032 | 0.6 and 0.5873 | -0.8 and -0.7679 |  | 
4 | O=C(O)CCC[C@H](O)\C=C/C=C/C=C/[C@H](O)C/C=C\CCCCCO [20-Trihydroxy-leukotriene-B4] | 0.6041 | -0.727 | 1.6 and 1.6338 | 0.7 and 0.7082 |  | 
5 | Nc1ncnc2c1ncn2[C@@H]1O[C@H](CO)[C@@H](O)[C@H]1O [Adenosine] | 2E+00 and 2.0454 | 1.0 and 1.0324 | 0.9 and 0.8524 | -0.2 and -0.2304 |  | 
6 | O=c1[nH]cnc2c1ncn2[C@@H]1O[C@H](CO)[C@@H](O)[C@@H]1O [Arabinosylhypoxanthine] | 2.4238 | 1.2773 | 0.8 and 0.7549 | -0.4 and -0.4056 |  | 
7 | CN(CC(=O)O)C(=N)N [Creatine] |  |  |  | -0.5 and -0.548 | unaltered | 
8 | CN1CC(=O)NC1=N [Creatinine] |  |  | 0.6 and 0.6078 | -0.7 and -0.7183 | unaltered | 
9 | O=c1[nH]cnc2nc[nH]c12 [Hypoxanthine] | 1.4699 | 0.5557 | 0.8 and 0.7546 | -0.4 and -0.4062 |  | 
10 | N[C@@H](Cc1c[nH]c2ccccc12)C(=O)O [L-Tryptophan] | 1.2938 | 0.3716 | 1.2 and 1.2301 | 0.3 and 0.2988 |  | 
11 | C=C1CCCCC1 [Methylenecyclohexane] | 1.3027 | 0.3815 | 4.3 and 4.303 | 2.1 and 2.1053 |  | 
12 | CCC=CCC=CCC=CCC=CCC=CCCCC(=O)N[C@@H](CCSC)C(=O)O [N-Eicosapentaenoyl Methionine] | 0.02285 | -5.4516 | 1.9 and 1.9179 | 0.9 and 0.9395 |  | 
13 | CCC(=O)OC(CC(=O)[O-])C[N+](C)(C)C (stereo not drawn) [Propionylcarnitine] | 0.3206 | -1.6411 | 0.8 and 0.7728 | -0.4 and -0.3718 |  | 
14 | Nc1ncnc2c1ncn2[C@H]1C[C@H](O)[C@@H](CO)O1 [deoxyadenosine] |  |  |  |  |  | 0
15 | CCN(CC)CCn1c(-c2ccccc2)noc1=N [imolamine] |  |  | 1.7 and 1.718 | 0.8 and 0.7808 |  | 
16 | CSCC[C@H](N)C(=O)N[C@@H](CCCCN)C(=O)N[C@@H](CCCCN)C(=O)O [met-lys-lys] (H-Met-Lys-Lys-OH) |  |  | 1.7 and 1.6535 | 0.7 and 0.7255 |  | 
17 | O=C(O)CCCCCCCCC(O)CCCCCC(=O)O (stereo not drawn) [xi-7-Hydroxyhexadecanedioic acid] |  |  | 4.0 and 4.0339 | 2.0 and 2.0122 |  | 
18 | Butanedioic acid, octenyl- |  |  | 1.6 and 1.5663 | 0.6 and 0.6473 |  | 
19 | Oxidized glutathione |  |  | 0.7 and 0.6775 | -0.6 and -0.5617 |  | 
